Assay results reported in patent US20230203182A1.
Changes are numbered by the printed parent chain. No constants are given. Whether binding was seen depends on the method and setting. Some results given as binding are weak or reduced against the parent protein; the word gives no strength.

B1: RTX-MT clone 148 (antibody, human IgG1, kappa, V domains shown)
VH: QVQLQQPGAELVKPGASVKMSCKASGYTFTSYNMHWVKQTPGRGLEWIGAIYPGNGDTSYNQKFKGKATLTADKSSSTAYMQLSSLTSEDSAVYYCARSTYFGGDWYFNVWGAGTTVTVSA
VL: QIVLSQSPAILSASPGEKVTMTCRASSSVSYIHWFQQKPGSSPKPWIYATSNLASGVPVRFSGSGSGTSYSLTISRVEAEDAATYYCQQWTSNPPTFGGGTKLEIKR
B2: RTX-MT clone 164 (antibody, human IgG1, kappa, V domains shown)
VH: B1 VH with F102Y, G103C
VL: B1 VL
B3: RTX-MT clone 198 (antibody, human IgG1, kappa, V domains shown)
VH: B1 VH with F102Y, Y107C
VL: B1 VL
B4: RTX-MT clone 199 (antibody, human IgG1, kappa, V domains shown)
VH: B1 VH with F102Y, F108L
VL: B1 VL

Biological target: human CA125/MUC16 protein (human) (UniProt Q8WXI7)
Test: ELISA, CA125-coated wells, biotinylated antibody

Binder | binding
B1 | binds
B2 | binds
B3 | binds
B4 | binds
